Measured values from article doi:10.1101/2025.10.23.684218.
No constants are given. Whether binding was seen depends on the method and setting. In cells and extracts the contact can be indirect. Some entries that bind do so weakly or less than the wild type.

Amino acid sequences for entries named in this document (tags omitted). Residues count along the entry.
UniProt Q9Y5T5: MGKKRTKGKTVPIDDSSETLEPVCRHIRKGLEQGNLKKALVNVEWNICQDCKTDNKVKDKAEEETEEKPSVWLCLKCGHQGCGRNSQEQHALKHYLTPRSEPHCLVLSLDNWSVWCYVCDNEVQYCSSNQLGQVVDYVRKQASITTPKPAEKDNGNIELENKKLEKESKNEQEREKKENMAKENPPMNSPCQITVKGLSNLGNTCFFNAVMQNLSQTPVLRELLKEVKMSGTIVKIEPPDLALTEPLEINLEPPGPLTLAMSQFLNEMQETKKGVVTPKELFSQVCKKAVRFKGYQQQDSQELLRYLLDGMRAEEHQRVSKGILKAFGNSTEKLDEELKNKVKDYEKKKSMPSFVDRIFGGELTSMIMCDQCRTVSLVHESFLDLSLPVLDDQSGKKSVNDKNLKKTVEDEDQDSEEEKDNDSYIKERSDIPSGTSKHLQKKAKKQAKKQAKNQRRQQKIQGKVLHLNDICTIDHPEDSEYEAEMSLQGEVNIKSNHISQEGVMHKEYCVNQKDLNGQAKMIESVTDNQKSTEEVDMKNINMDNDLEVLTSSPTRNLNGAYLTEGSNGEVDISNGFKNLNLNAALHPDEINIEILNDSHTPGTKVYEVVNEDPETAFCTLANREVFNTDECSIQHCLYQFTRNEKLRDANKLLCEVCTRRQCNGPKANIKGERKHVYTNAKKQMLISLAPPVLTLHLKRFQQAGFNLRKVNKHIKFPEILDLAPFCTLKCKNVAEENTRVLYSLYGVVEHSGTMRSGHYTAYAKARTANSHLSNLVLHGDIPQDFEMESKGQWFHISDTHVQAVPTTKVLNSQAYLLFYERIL
UniProt Q9UBN7: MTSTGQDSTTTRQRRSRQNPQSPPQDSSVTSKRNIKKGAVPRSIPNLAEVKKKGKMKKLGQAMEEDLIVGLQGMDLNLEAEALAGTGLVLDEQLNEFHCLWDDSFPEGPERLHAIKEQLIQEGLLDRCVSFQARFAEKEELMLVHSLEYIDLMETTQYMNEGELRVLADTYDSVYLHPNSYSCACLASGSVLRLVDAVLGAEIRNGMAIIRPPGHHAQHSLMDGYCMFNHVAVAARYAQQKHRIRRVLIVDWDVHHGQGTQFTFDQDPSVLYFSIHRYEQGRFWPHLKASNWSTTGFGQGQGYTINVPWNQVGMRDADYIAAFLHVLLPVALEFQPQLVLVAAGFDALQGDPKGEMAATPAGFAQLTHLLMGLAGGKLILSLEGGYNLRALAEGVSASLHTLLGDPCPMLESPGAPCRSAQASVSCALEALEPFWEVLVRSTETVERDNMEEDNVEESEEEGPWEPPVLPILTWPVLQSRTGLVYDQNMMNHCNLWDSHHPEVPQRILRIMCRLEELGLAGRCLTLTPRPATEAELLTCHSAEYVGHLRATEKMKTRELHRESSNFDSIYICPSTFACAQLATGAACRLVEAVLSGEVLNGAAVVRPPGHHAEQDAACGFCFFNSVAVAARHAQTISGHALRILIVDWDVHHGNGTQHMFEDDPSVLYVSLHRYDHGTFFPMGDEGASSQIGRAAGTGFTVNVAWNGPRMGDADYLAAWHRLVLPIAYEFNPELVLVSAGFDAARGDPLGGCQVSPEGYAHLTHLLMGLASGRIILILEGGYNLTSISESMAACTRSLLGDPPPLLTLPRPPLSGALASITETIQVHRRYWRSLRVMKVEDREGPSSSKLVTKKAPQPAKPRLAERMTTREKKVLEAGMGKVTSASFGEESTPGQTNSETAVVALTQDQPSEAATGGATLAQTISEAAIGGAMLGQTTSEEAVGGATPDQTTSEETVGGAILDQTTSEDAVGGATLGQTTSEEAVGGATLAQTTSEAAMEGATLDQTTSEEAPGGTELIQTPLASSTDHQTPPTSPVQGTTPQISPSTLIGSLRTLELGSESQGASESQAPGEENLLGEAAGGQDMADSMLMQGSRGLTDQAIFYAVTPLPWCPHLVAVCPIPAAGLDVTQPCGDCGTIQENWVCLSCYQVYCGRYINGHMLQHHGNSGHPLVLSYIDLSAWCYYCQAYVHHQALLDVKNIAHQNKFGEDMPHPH
UniProt P05161, residues 1-157: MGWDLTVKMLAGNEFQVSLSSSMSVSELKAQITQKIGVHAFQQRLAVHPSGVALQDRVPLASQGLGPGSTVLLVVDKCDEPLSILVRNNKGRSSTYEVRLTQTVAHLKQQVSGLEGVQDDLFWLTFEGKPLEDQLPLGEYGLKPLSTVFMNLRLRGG

Tests used:
[1] = target: Ubiquitin-specific peptidase 16 (USP16), N-terminally NanoLuc-tagged (human) (UniProt Q9Y5T5); test: FRET or BRET
[2] = target: HDAC6 (histone deacetylase 6), N-terminally NanoLuc-tagged (UniProt Q9UBN7); test: FRET or BRET

ISG15, N-terminally HaloTag-tagged (from UniProt P05161 1-157)
binding [1]: binds | binding [2]: binds
